PubChem BioAssay AID1053208 | Peter MacCallum Cancer Centre – 2014

- Aim: 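Synthetic lethal interactions between gene loss and doxorubicin in osteosarcoma cells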 (primary screen)
- Cell system: mouse osteosarcoma cells, early-passage culture from an engineered mouse model of fibroblastic bone tumour
- Knock-down reagent: siRNA pool against mouse genes, 40 nM
- Duration: about 120 h (48 h before drug, then 72 h with drug)
- Conditions: doxorubicin 100 nM for 72 h, roughly 30-40% inhibitory dose
- Measured: 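Viability read as ATP luminescence after 72 h of 100 nM doxorubicin or none, duplicate wells averaged, scaled to non-targeting siRNA, then expressed as robust z-scores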
- Direction: viability z-score with doxorubicin: higher = more viable cells under doxorubicin; viability z-score without drug: higher = more viable cells with knock-down alone; z-score of drug to no-drug ratio: higher = less drug sensitisation by knock-down
- Active means: 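a pool counts as active when its viability z-score with doxorubicin is -2 or below and its z-score without drug lies between -2 and 2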
In all, the deposit lists about 17,000 reagents; shown is an unselected part. 788 of all reagents (4.7%) count as active. 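Calls rest on z-score classes alone; an extra cut-off of viability at most 70% of control was not applied to them.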 Reagents against one gene are numbered here. Further read-outs or replicates are left out here.

The opening 6 entries, to show the layout:
no.	target	reagent no.	combined z-score class	viability z-score with doxorubicin	viability z-score without drug	z-score of drug to no-drug ratio	activity call
1	Hpvc-ps (retired record)	1	no change with or without drug	-0.9	-0.17	-0.79	inactive
2	Pld4	1	no change with or without drug	0.34	0.84	-0.11	inactive
3	Eogt	1	no change with or without drug	-1.35	-0.17	-1.24	inactive
4	Or13a28	1	no change with or without drug	0.45	0	0.56	inactive
5	Vps26c	1	no change with or without drug	0.9	0.51	0.67	inactive
6	Rbmxl1	1	no change with or without drug	-0.22	0.17	-0.22	inactive

Results, from the start:
no.	target	reagent no.	combined z-score class	viability z-score with doxorubicin	viability z-score without drug	z-score of drug to no-drug ratio	activity call
1	Hpvc-ps (retired record)	1	no change with or without drug	-0.9	-0.17	-0.79	inactive
2	Pld4	1	no change with or without drug	0.34	0.84	-0.11	inactive
3	Eogt	1	no change with or without drug	-1.35	-0.17	-1.24	inactive
4	Or13a28	1	no change with or without drug	0.45	0	0.56	inactive
5	Vps26c	1	no change with or without drug	0.9	0.51	0.67	inactive
6	Rbmxl1	1	no change with or without drug	-0.22	0.17	-0.22	inactive
7	Syn2	1	no change with or without drug	1.24	1.69	0.22	inactive
8	Rhebl1	1	no change with or without drug	1.12	0.84	0.67	inactive
9	Tm9sf2	1	no change with or without drug	0.67	0.34	0.56	inactive
10	Itgb3	1	no change with or without drug	-0.45	1.01	-1.01	inactive
11	Gfm1	1	no change with or without drug	0.34	0.84	-0.11	inactive
12	Ing2	1	no change with or without drug	-0.67	-0.51	-0.22	inactive
13	Acsf2	1	no change with or without drug	1.12	0.51	0.9	inactive
14	Lce3b	1	high cell count with doxorubicin only	3.04	0.84	2.59	inactive
15	Zfp275	1	high cell count with doxorubicin only	2.02	1.69	1.01	inactive
16	D130005J21RIK	1	no change with or without drug	-1.57	-0.34	-1.35	inactive
17	Eef1akmt1	1	high cell count with and without drug	2.02	2.53	0.45	inactive
18	Pafah1b2	1	no change with or without drug	0.67	-0.84	1.46	inactive
19	Gm5108	1	no change with or without drug	-0.67	-1.52	0.45	inactive
20	Zpbp	1	no change with or without drug	0.22	1.52	-0.67	inactive
21	Chst7	1	no change with or without drug	-0.22	0.51	-0.45	inactive
22	Slc4a9	1	no change with or without drug	0.34	0.34	0.22	inactive
23	Strn3	1	no change with or without drug	0.45	-0.51	1.01	inactive
24	Timm17a	1	no change with or without drug	0.45	0.84	0	inactive
25	Snrnp25	1	no change with or without drug	-0.79	-0.51	-0.34	inactive
26	Mon1a	1	low cell count with doxorubicin only	-3.15	-0.51	-2.92	active
27	Dph6	1	no change with or without drug	0.22	1.01	-0.34	inactive
28	Cx3cr1	1	no change with or without drug	0.45	-1.18	1.46	inactive
29	Gabrb2	1	no change with or without drug	0.34	0.17	0.34	inactive
30	Gabrb2	2	no change with or without drug	-0.67	-0.51	-0.22	inactive
31	Rab9	1	no change with or without drug	1.57	0.84	1.12	inactive
32	Or2t48	1	no change with or without drug	0	-0.84	0.67	inactive
33	Ins2	1	high cell count with doxorubicin only	2.7	1.52	1.69	inactive
34	Vldlr	1	no change with or without drug	0.22	1.35	-0.56	inactive
35	Far2	1	high cell count without drug only	1.8	2.19	0.45	inactive
36	Osgin1	1	low cell count with doxorubicin only	-2.36	-1.85	-1.24	active
37	Igbp1b	1	no change with or without drug	-0.9	0.84	-1.35	inactive
38	Spcs2	1	no change with or without drug	0.45	0.84	0	inactive
39	Kl	1	no change with or without drug	0.79	0.51	0.56	inactive
40	Dnmt3b	1	no change with or without drug	1.12	1.18	0.45	inactive
41	Or52r1b	1	no change with or without drug	-0.9	-1.85	0.45	inactive
42	Zfp334	1	high cell count with doxorubicin only	2.7	1.52	1.69	inactive
43	Meis1	1	high cell count without drug only	1.24	2.36	-0.22	inactive
44	Rnf14	1	no change with or without drug	1.35	0.34	1.24	inactive
45	Fkbp7	1	no change with or without drug	0.9	0.51	0.67	inactive
46	Unc80	1	no change with or without drug	1.35	-0.84	2.25	inactive
47	Fam76a	1	no change with or without drug	1.8	1.35	1.01	inactive
48	C2cd5	1	no change with or without drug	-0.22	-0.17	0	inactive
49	Ppp2r1b	1	no change with or without drug	-0.45	-0.84	0.22	inactive
50	Or8g17	1	no change with or without drug	0.45	0.34	0.34	inactive
